From article PMC7093409
Results are given in words; binding and its absence hold for the method and conditions named. In cells and extracts the contact can be indirect. Some entries that bind do so weakly or less than the wild type.

Sequences of proteins named here, by UniProt entry; tags and fusion partners are left off. A change or cut given only in a name is not applied to a line headed by its entry.
UniProt Q99MI1: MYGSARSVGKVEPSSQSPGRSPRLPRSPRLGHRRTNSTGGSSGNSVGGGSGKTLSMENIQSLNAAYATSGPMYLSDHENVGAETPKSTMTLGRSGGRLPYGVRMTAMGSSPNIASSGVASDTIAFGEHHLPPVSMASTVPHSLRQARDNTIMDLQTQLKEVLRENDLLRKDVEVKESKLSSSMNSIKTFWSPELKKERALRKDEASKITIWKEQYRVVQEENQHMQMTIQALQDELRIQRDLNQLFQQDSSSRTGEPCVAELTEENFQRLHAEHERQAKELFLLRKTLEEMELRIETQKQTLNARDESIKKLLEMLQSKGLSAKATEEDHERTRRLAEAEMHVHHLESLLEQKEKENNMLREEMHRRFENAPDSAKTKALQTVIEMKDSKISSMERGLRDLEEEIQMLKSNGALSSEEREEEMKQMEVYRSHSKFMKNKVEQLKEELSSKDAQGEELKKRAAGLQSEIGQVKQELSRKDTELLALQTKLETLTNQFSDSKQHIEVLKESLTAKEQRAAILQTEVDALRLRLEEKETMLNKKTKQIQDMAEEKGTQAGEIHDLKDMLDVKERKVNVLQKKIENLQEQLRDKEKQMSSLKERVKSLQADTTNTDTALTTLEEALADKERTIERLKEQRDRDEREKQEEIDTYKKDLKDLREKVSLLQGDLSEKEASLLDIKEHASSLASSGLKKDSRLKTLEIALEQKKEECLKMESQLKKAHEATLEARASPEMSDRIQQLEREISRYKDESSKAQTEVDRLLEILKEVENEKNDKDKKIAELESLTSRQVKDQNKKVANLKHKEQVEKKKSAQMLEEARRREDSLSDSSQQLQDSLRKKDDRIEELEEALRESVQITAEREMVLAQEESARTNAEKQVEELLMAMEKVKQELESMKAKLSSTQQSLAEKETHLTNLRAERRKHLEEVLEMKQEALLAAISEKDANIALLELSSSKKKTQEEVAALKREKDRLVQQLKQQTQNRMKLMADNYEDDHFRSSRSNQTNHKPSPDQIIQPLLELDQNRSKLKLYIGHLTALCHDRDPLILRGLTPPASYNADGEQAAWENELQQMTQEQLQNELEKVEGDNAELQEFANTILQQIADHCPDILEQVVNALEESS
UniProt Q9DCD6: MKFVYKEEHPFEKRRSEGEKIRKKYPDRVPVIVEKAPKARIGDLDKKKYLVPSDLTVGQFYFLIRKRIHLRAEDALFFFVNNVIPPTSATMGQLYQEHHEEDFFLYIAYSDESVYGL

How the values were obtained:
[1] = target: tdTomato-ELKS1 (UniProt Q99MI1); assay: co-IP; HEK cell lysates, ELKS1 immunoprecipitation, blot against GFP
[2] = target: eGFP-GABARAP (mouse) (UniProt Q9DCD6); assay: co-IP; HEK293T cells co-transfected with the eGFP fusion and tdTomato-ELKS1, RIPA lysate, magnetic GFP-microbeads, blot against mCherry
[3] = target: eGFP-GABARAP G116A (mouse) (UniProt Q9DCD6); assay: as above
[4] = target: eGFP-LC3A (mouse) (UniProt Q91VR7); assay: as above
[5] = target: eGFP-LC3A G120A (mouse) (UniProt Q91VR7); assay: as above

Row | Substance | binding [1] | binding [2] | binding [3] | binding [4] | binding [5]
1 | eGFP-LC3A (from UniProt Q91VR7 1-121) | binds | – | – | – | –
2 | tdTomato-ELKS1 (from UniProt Q99MI1 1-1120) | – | no binding | no binding | binds | binds
